Results as given in patent US4269827A (The Massachusetts General Hospital, priority 1980, dated 1981).
Strings that start with PEPTIDE1 are HELM notation: dots part the residues, brackets hold end groups and non-standard residues.

Assay: general procedure: Boc solid-phase peptide synthesis; polymer beads; dicyclohexylcarbodiimide
Settings: whole synthesis

PEPTIDE1{P.H.P.F.H.F.F.V.Y.K}$$$$V2.0
crude yield: 53% | isolated yield: 30%
